No constants are given. Whether binding was seen depends on the method and setting. For part of these data: In cells and extracts the contact can be indirect. For part of these data: Tags and fused reporters may be left off the sequences shown. Some binding calls cover weakened binding; strength is not graded here.
Key:
[1] = target: pGBKT7-mRad51 (mouse Rad51) (mouse) (UniProt Q08297); assay: two-hybrid; pGAD-RAD51 in PJ69-4α mated with PJ69-4A carrying pGBKT7 or pGBT9 fusions; growth on SC-Trp-Leu-His with 30 mM 3-AT, 30°C
[2] = target: Strep II human Rad51-S181P (human) (UniProt Q06609); assay: co-IP; Strep II-RAD51 variants and 3xFlag-BRC3 or 3xFlag-Ex27 co-transfected in HEK293T; lysate in buffer X (100 mM Tris-HCl pH 8.5, 250 mM NaCl, 1 mM EDTA, 1% NP-40) on Streptactin Sepharose 1 hr at 4°C; immunoblot

Sequences of proteins named here, by UniProt entry; tags and fusion partners are left off. A change or cut given only in a name is not applied to a line headed by its entry.
UniProt Q08297: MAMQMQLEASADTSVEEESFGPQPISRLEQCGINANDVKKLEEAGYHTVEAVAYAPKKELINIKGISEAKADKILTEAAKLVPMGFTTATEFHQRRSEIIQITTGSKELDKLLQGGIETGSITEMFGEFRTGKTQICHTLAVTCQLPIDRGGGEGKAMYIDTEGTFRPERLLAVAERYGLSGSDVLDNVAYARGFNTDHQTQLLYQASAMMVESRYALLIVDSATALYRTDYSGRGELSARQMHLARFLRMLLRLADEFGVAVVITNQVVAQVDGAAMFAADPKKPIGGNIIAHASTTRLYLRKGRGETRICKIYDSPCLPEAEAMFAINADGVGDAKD
UniProt Q06609: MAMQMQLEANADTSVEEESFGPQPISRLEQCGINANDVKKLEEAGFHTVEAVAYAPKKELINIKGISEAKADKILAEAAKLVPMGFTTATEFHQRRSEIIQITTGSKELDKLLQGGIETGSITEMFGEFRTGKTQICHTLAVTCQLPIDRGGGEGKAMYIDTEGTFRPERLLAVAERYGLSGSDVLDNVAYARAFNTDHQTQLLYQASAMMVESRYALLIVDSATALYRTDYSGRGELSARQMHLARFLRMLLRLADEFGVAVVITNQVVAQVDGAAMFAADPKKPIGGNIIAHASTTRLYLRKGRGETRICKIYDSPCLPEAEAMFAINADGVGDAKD

With “pGAD-hRAD51 (human Rad51), wild type (from UniProt Q06609 1-339)” the binding [1] was “binds”.

For “pGAD-rad51 S181P (human RAD51 S181P) (from UniProt Q06609 1-339)”, the binding [1] was “binds”.

ALDFLSRLPLPPPVSPICTFVSPAAQKAFQPPRSCG (domain or fragment) [3XFlag-hBRCA2 Ex27] was tested, and the binding [2] was “no binding”.

From publication PMC10993188, “RAD51 separation of function mutation disables replication fork maintenance but preserves DSB repair”
